From paper PMC7165181
Results are given in words; binding and its absence hold for the method and conditions named. In cells and extracts the contact can be indirect. Some results given as binding are weak or reduced against the parent protein; the word gives no strength.

Chains of the proteins cited; added tags and fusions are not shown. Lines headed by an entry give the natural chain unless they say otherwise; changes in a name come on top. A line that says so, or that is headed by a name, gives the form on record, which may keep a tag or linker.
Flag-TNFRSF10B (short isoform) (O14763, form named): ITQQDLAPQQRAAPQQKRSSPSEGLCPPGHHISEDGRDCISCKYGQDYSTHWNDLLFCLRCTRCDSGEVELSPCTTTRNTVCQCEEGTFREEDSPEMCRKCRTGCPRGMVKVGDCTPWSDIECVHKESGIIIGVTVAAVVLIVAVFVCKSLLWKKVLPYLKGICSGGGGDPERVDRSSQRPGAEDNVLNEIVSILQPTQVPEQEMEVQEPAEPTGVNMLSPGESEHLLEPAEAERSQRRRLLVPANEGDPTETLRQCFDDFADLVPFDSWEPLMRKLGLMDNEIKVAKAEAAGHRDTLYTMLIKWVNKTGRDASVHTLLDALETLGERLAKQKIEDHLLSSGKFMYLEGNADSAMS
UniProt Q9BWQ6: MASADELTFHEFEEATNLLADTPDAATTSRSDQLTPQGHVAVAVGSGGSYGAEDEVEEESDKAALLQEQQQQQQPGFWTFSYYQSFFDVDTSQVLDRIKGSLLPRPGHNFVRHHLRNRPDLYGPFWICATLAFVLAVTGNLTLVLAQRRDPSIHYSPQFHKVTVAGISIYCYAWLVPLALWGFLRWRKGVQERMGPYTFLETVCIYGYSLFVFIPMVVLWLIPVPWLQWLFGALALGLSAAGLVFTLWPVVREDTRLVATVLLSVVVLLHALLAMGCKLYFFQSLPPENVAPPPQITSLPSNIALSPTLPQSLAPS

Target: Flag-TNFRSF10B (short isoform) (human) (UniProt O14763)
Test: co-IP; H1299 cells transfected with pcDNA3.1 or pcDNA3.1-Flag-TNFRSF10B (short isoform); lysis buffer 20 mM Tris-HCl pH 7.5, 150 mM NaCl, 0.5% Triton; IP with Flag antibody and protein A beads at 4 °C; western blot with Flag and YIPF2 antibodies

endogenous YIPF2 (H1299 cells) (from UniProt Q9BWQ6 1-316)
binding: binds
